# Measurements reported in PubChem BioAssay AID2685 (National Center for Advancing Translational Sciences (NCATS), 2010).
# Some of the results follow. Shown are side measurements of this screen, not its main read-out; they come without a call. Compounds called inactive in the main read-out are mostly missing here. Words in brackets tell the shape of the fitted curve; partial curves, single points and poor fits give uncertain potencies.
# Experiment: qHTS Assay for Lipid Storage Modulators in Drosophila S3 Cells;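 for cell number change: cells counted by Cell Tracker Red CMTPX staining in the red channel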
# Conditions: BODIPY lipid droplet fluorescence, 18-24 h; for cell number change: measured here: cell count max response, cells fed with added oleic acid
# Outline: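 Drosophila S3 cells got compounds at several concentrations plus oleic acid (400 uM solution). Laser-scanning cytometry with 488 nm excitation read lipid droplets at 500-530 nm and cells at 575-640 nm. Percent activity was relative to 20 uM Triacsin C.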
# [1] = measured here: cell number channel AC50, cells fed with added oleic acid
# [2] = measured here: lipid fluorescence (Fed channel) AC50, cells fed with added oleic acid
smiles,measurement,setting,value
CCOc1ccccc1NC(=O)C1CCCN1S(=O)(=O)c1ccccc1C(F)(F)F (centres undefined),cell number change,,-25.7%
same,AC50,[1],"1.64 µM [rising, partial curve]"
same,AC50,[2],"2.06 µM [rising, partial curve]"
CCN(CC)S(=O)(=O)c1cccc(C(=O)Nc2cc(C)cc(C)c2)c1,cell number change,,-1.61%
same,AC50,[1],"6.51 µM [falling, single point]"
same,AC50,[2],"29.1 µM [falling, single point]"
Cc1ccc(C(=O)OCC(=O)N2CC(C)CC(C)C2)cc1S(=O)(=O)N1CCCCC1 (centres undefined),cell number change,,-18%
COc1cccc(N2CCN(S(=O)(=O)c3ccc4c(c3)NC(=O)C(C)C(=O)N4)CC2)c1 (centres undefined),cell number change,,-13.9%
Cc1cc(C)cc(Oc2ncnc3c2ncn3Cc2c(Cl)cccc2Cl)c1,cell number change,,-30.1%
same,AC50,[1],"29.1 µM [falling, single point]"
CCCCC(c1nnnn1C1CCCC1)N1CCN(C(=O)c2ccco2)CC1 (centres undefined),cell number change,,-10.9%
same,AC50,[2],"0.13 µM [rising, full curve, poor fit]"
CC1CCN(C(=O)c2nc[nH]c2C(=O)N2CCc3ccccc3C2)CC1,cell number change,,16.5%
same,AC50,[1],"0.366 µM [rising, partial curve, poor fit]"
CCOC(=O)C(NC(=O)OC(C)C)(Nc1nccs1)C(F)(F)F (centres undefined),cell number change,,-165%
same,AC50,[1],"29.1 µM [falling, partial curve]"
O=C(c1oc2ccccc2c1CSCc1ccccc1)N1CCN(c2ncccn2)CC1,cell number change,,-15.9%
same,AC50,[2],"10.3 µM [falling, partial curve]"
Nc1nonc1-n1nnc(C(=O)N/N=C/c2cc(Br)ccc2O)c1CSC1=NCCS1,cell number change,,-9.28%
same,AC50,[2],"18.4 µM [falling, single point]"
CC(=O)c1ccc(NC(=O)CCSCCC(=O)Nc2ccc(C(C)=O)cc2)cc1,cell number change,,1.76%
O=c1ccc2ccc(OCCOc3cccc(Cl)c3)cc2o1,cell number change,,36.4%
same,AC50,[1],"20.6 µM [rising, partial curve, poor fit]"
same,AC50,[2],"1.84 µM [rising, full curve]"
CCN1C(=O)[C@@H]2[C@@H](c3ccc(SC4CCCCC4)cc3)N3CCC[C@@]3(C(=O)OC)[C@@H]2C1=O,cell number change,,-12.9%
same,AC50,[2],"0.82 µM [rising, full curve, poor fit]"
O=C(Cn1cnc2cc([N+](=O)[O-])ccc2c1=O)Nc1cccc2ccccc12,cell number change,,11.3%
same,AC50,[2],"0.206 µM [rising, full curve]"
COc1ccccc1-c1ccc(SCc2ccc([N+](=O)[O-])cc2)nn1,cell number change,,29%
same,AC50,[1],"0.116 µM [rising, partial curve, poor fit]"
same,AC50,[2],"9.2 µM [rising, partial curve]"
O=C(NCCO)c1cccc2c1-c1ccccc1C2=O,cell number change,,31.1%
same,AC50,[1],"32.6 µM [rising, single point]"
same,AC50,[2],"0.0184 µM [falling, full curve, poor fit]"
COc1ccc(C(=O)NCC(=O)N2CCC(C)CC2)cc1OC,cell number change,,-1.78%
same,AC50,[1],"0.116 µM [falling, full curve, poor fit]"
S=C(Nc1cccnc1)Nc1cccc2cnccc12,cell number change,,43.8%
same,AC50,[1],"2.91 µM [rising, full curve, poor fit]"
same,AC50,[2],"18.4 µM [rising, single point]"
Cc1nc(NC(=S)NC(=O)c2cccs2)ccc1Br,cell number change,,-31.7%
same,AC50,[1],"14.6 µM [falling, single point]"
same,AC50,[2],"2.06 µM [rising, partial curve]"
CCCCOc1ccc(-c2nnc(N)s2)cc1,cell number change,,3.39%
COc1ccc(-c2cc3nc[nH]c(=O)c3s2)cc1,cell number change,,46.1%
same,AC50,[1],"5.8 µM [rising, single point]"
CCCCCC1CC(CC/C(C)=N/NC(N)=O)C(=O)O1 (centres undefined),cell number change,,-17.7%
same,AC50,[2],"16.4 µM [falling, single point]"
CCOc1ccc(/C=N/NC(=O)c2c(-c3ccccc3)noc2C)cc1,cell number change,,9.89%
same,AC50,[2],"0.116 µM [falling, partial curve, poor fit]"
N#C/C(=C\c1ccc(Cl)s1)C(=O)N1CCN(c2ccccc2)CC1,cell number change,,-16.7%
same,AC50,[2],"2.59 µM [falling, partial curve]"
O=C(CN1C(=O)c2ccccc2S1(=O)=O)NCCSCc1c(F)cccc1Cl,cell number change,,11.2%
O=C(O)c1ccccc1NCc1cccs1,cell number change,,7.92%
same,AC50,[2],"3.26 µM [rising, full curve]"
CN(C)CCN(C)Cc1ccc2c(c1)Cc1ccccc1-2,cell number change,,-32.8%
same,AC50,[1],"0.731 µM [falling, partial curve, poor fit]"
COc1ccccc1CN1CC(C(=O)N(C)Cc2ccc(C)o2)CCC1=O (centres undefined),AC50,[2],"0.411 µM [falling, partial curve]"
CCc1cccc(NC(=O)Cn2c(-c3ccccc3)cc(C(C)=O)c2C)c1,cell number change,,12.9%
same,AC50,[2],"11.6 µM [rising, partial curve]"
COc1cc(/C=C/c2noc(-c3ccccc3O)n2)cc(OC)c1OC,cell number change,,-10.1%
same,AC50,[2],"4.11 µM [rising, single point]"
CCOC(=O)c1oc2cccc(O)c2c1CN(Cc1ccccc1)C(C)=O,cell number change,,8.4%
same,AC50,[2],"4.11 µM [falling, full curve]"
Cc1ccc(NC(=O)CCc2nnc3ccc(N4CCC5(CC4)OCCO5)nn23)cc1F,cell number change,,-23.2%
same,AC50,[2],"0.231 µM [falling, full curve]"
CCn1c(=O)c2c(nc(SCC(=O)N3CCC(C)CC3)n2C)n(C)c1=O,cell number change,,0.435%
same,AC50,[2],"29.1 µM [falling, single point]"
COc1ccc(CCNC(=O)c2ccc(N3CCCCS3(=O)=O)cc2)cc1OC,AC50,[1],"4.11 µM [rising, single point]"
same,AC50,[2],"29.1 µM [rising, single point]"
CCCCCN(C(=O)CCC(=O)OCC(=O)N(C)Cc1ccccc1C)c1c(N)n(CCCC)c(=O)[nH]c1=O,cell number change,,10%
Cc1nc2cc(-c3ccc(F)cc3)[nH]n2c(=O)c1C,cell number change,,-5.25%
same,AC50,[2],"0.231 µM [rising, full curve, poor fit]"
COCCN(C(=O)CSCC(=O)Nc1ccc(C)cc1)c1c(N)n(CC(C)C)c(=O)[nH]c1=O,cell number change,,-8.03%
same,AC50,[2],"0.00461 µM [rising, full curve, poor fit]"
COC(=O)c1ccc([C@H]2C=C(C(=O)O)O[C@@H](OCc3ccc(CO)cc3)C2)cc1,cell number change,,12.3%
same,AC50,[2],"8.2 µM [rising, partial curve]"
O=C(NCCCn1ccnc1)c1cn(-c2ccccc2)nc1-c1ccccc1,cell number change,,-6.37%
same,AC50,[1],"0.116 µM [falling, full curve, poor fit]"
same,AC50,[2],"18.4 µM [rising, partial curve]"
CC(C)CC(C(=O)Nc1ccc2c(c1)OCCO2)N1C(=O)c2ccccc2C1=O (centres undefined),cell number change,,-17.7%
O=C(NCCO)c1nc(C(=O)c2ccc(Cl)cc2)c2ccccc2n1,cell number change,,-12.6%
Cc1cnc(C(=O)OCC(=O)NCc2ccccc2)cn1,cell number change,,-80.7%
same,AC50,[1],"14.6 µM [falling, partial curve, poor fit]"
same,AC50,[2],"14.6 µM [falling, partial curve]"
O=C1/C(=C\c2ccc(O)cc2)SC(=S)N1/N=C/c1ccc(O)cc1,cell number change,,-12.7%
same,AC50,[2],"9.2 µM [falling, partial curve]"
Cc1cc(C)n2nc(SCC(=O)c3ccc[nH]3)nc2n1,cell number change,,15.1%
same,AC50,[2],"1.46 µM [rising, full curve]"
CCc1ccc(Nc2nnc(SCC(=O)Nc3sccc3C(N)=O)s2)cc1,cell number change,,8.07%
same,AC50,[2],"1.03 µM [rising, full curve, poor fit]"
Cc1ccc(/C=C2/SC(=S)N(CCC(=O)N3CCOCC3)C2=O)cc1,AC50,[2],"29.1 µM [rising, single point]"
C=CCN1/C(=C2/SC(=S)N(C)C2=O)Sc2ccccc21,cell number change,,-2.38%
same,AC50,[2],"9.2 µM [falling, partial curve]"
COc1ccc(S(=O)(=O)Nc2ccccc2C(F)(F)F)cc1,cell number change,,5.54%
CCOC(=O)c1ccc(CC2S/C(=C(\C#N)C(C)=O)NC2=O)cc1 (centres undefined),AC50,[1],"6.51 µM [falling, single point]"
same,AC50,[2],"1.46 µM [falling, full curve]"
CNCCCOc1ccc(C)cc1OC,cell number change,,21.7%
same,AC50,[2],"4.11 µM [rising, partial curve]"
COc1ccc(NC(=O)CN(C)C(=O)c2oc3c(ccc4ccccc43)c2C)cc1,cell number change,,10.3%
same,AC50,[2],"0.092 µM [rising, full curve, poor fit]"
CCOC(=O)c1c(C)[nH]c(C(=O)OCC(=O)Nc2sccc2C(N)=O)c1C,cell number change,,-52.3%
same,AC50,[1],"16.4 µM [falling, single point]"
same,AC50,[2],"20.6 µM [falling, partial curve]"
Cc1ccc(C)c(OCCC(=O)NCCc2ccc(S(N)(=O)=O)cc2)c1,cell number change,,7.8%
same,AC50,[1],"0.411 µM [rising, single point]"
same,AC50,[2],"1.64 µM [rising, partial curve]"
Cc1ccc(SCCNC(=O)c2ccccc2F)cc1,cell number change,,19.4%
same,AC50,[2],"18.4 µM [rising, single point]"
CN(C)C(=O)c1c(-c2ccccc2)oc2ccc(O)cc12,cell number change,,0.136%
same,AC50,[2],"3.26 µM [rising, full curve, poor fit]"
CC(C)n1c(SCC(=O)Nc2ccccc2N2CCCCC2)nc2c1c(=O)n(C)c(=O)n2C,cell number change,,13.8%
Cc1ccc(S(=O)(=O)N2CCCC2C(=O)O)cc1 (centres undefined),cell number change,,31.1%
same,AC50,[1],"29.1 µM [rising, single point]"
COc1ccc(Nc2nnc(SCC(=O)/C=C3/N(C)c4ccccc4C3(C)C)s2)cc1,cell number change,,-50.4%
same,AC50,[1],"1.64 µM [falling, single point]"
same,AC50,[2],"20.6 µM [falling, single point]"
NC(=O)c1ccc(NC(=O)COC(=O)C2(c3cccc(F)c3)CCCC2)cc1,cell number change,,66.4%
same,AC50,[1],"29.1 µM [rising, single point]"
same,AC50,[2],"18.4 µM [rising, single point]"

# Some of the entries so far, with tabs.
smiles	measurement	setting	value
CCN(CC)S(=O)(=O)c1cccc(C(=O)Nc2cc(C)cc(C)c2)c1	AC50	[1]	6.51 µM [falling, single point]
Nc1nonc1-n1nnc(C(=O)N/N=C/c2cc(Br)ccc2O)c1CSC1=NCCS1	cell number change		-9.28%
O=C(O)c1ccccc1NCc1cccs1	AC50	[2]	3.26 µM [rising, full curve]
Cc1cnc(C(=O)OCC(=O)NCc2ccccc2)cn1	cell number change		-80.7%
O=C1/C(=C\c2ccc(O)cc2)SC(=S)N1/N=C/c1ccc(O)cc1	AC50	[2]	9.2 µM [falling, partial curve]
Cc1cc(C)n2nc(SCC(=O)c3ccc[nH]3)nc2n1	AC50	[2]	1.46 µM [rising, full curve]
CCOC(=O)c1ccc(CC2S/C(=C(\C#N)C(C)=O)NC2=O)cc1 (centres undefined)	AC50	[2]	1.46 µM [falling, full curve]
